Data as given in paper PMC4260354.

Assays:
Test in all cases: affinity purification with mass spectrometry; protein extracts of flower tissue of transgenic plants; anti-Flag M1 agarose, eluted with 3x Flag peptides, SDS-PAGE, silver staining, in-gel trypsin digestion, mass spectrometry; wild-type control
CHR19-Myc (Arabidopsis) = molecular target: T1, CHR19-Myc (Arabidopsis) (UniProt Q9ZUL5)
T1 sequence: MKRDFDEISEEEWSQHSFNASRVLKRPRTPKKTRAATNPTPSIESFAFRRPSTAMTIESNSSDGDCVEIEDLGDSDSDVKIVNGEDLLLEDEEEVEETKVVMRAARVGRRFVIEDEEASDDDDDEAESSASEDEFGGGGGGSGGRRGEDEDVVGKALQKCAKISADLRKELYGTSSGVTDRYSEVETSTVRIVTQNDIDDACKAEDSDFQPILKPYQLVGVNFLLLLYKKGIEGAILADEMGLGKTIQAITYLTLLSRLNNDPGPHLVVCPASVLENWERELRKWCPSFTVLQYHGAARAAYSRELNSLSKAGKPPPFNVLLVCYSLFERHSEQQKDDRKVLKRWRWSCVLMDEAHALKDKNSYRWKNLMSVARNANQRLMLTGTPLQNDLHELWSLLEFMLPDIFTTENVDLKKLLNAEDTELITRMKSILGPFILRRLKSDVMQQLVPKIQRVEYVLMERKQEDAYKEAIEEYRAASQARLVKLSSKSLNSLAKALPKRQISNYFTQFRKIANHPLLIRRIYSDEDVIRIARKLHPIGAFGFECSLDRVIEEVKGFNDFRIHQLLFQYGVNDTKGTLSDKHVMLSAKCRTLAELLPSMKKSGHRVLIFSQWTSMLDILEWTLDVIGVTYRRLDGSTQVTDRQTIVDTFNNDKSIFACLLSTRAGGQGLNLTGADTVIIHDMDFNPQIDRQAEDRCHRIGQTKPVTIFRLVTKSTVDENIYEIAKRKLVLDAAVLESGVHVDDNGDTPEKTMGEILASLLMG

CHR27-Myc (Arabidopsis) = molecular target: T2, CHR27-Myc (Arabidopsis) (UniProt Q9LHE4)
T2 sequence: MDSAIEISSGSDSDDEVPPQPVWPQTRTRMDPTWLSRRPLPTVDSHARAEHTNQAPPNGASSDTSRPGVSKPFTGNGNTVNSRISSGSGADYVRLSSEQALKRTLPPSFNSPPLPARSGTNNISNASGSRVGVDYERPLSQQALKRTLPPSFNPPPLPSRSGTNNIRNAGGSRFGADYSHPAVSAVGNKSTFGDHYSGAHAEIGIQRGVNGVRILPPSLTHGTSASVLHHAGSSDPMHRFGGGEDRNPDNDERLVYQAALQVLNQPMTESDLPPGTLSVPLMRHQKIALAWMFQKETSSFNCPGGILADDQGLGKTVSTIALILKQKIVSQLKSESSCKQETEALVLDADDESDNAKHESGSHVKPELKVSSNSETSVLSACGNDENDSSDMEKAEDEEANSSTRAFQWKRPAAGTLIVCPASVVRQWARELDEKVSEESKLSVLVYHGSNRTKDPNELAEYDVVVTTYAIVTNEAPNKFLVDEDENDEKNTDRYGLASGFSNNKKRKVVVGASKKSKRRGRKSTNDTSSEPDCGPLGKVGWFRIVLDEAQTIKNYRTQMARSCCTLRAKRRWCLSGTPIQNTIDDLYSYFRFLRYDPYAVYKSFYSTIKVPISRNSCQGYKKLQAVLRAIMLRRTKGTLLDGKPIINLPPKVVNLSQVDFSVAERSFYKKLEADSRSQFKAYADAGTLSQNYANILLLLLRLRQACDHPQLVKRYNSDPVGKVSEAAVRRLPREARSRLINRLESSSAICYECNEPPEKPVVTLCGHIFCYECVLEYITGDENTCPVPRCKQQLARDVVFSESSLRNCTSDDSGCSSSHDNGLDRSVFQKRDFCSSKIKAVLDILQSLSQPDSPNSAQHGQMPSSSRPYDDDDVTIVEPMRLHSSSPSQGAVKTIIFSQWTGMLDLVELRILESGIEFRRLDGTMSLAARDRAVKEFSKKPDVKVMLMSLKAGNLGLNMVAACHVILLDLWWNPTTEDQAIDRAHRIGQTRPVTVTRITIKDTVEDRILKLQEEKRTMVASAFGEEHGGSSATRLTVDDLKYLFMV

SUVR1-Flag (Arabidopsis) = molecular target: T3, SUVR1-Flag (Arabidopsis) (UniProt Q946J2)
T3 sequence: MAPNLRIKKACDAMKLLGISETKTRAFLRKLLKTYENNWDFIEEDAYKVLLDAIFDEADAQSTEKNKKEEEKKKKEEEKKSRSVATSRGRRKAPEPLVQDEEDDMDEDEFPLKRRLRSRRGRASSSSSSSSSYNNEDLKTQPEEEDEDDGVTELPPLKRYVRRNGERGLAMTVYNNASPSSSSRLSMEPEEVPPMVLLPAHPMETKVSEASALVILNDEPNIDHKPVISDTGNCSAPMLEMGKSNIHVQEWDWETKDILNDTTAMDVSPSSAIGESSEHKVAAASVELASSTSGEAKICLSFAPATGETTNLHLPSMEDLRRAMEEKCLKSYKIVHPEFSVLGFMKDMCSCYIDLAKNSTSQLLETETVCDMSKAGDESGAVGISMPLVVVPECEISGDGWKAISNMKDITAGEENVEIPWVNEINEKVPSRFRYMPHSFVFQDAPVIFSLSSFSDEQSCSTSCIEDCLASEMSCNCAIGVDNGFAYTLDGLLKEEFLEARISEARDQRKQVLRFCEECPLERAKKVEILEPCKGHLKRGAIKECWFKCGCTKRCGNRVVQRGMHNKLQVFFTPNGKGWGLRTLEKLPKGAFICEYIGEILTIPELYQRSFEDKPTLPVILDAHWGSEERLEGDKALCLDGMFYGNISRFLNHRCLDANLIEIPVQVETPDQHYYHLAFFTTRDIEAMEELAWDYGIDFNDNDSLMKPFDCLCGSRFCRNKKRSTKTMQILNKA

binding (CHR19-Myc (Arabidopsis)): binds
binding (CHR27-Myc (Arabidopsis)): binds
binding (SUVR1-Flag (Arabidopsis)): binds
B1: SUVR2 (protein, UniProt Q9FNC7 1-717)
chain: MAPNLHIKKAFMAMRAMGIEDARVKPVLKNLLALYEKNWELIAEDNYRVLADAIFDSHEDQAIQESEEKKADEVKEDEGCAAEVDRGKKKLHESIEDDEDVMAESDRPLKRLRRRGEGGSALASPSLGSPTLEGPSINDEENAPILLPYHPVPIENDHDAGELILTKVEPITNMPLSSIPDSVDRGDSSMLEIDKSNGHVEEKAGETVSTADGTTNDISPTTVARFSDHKLAATIEEPPALELASSASGEVKINLSFAPATGGSNPHLPSMEELRRAMEEKCLRSYKILDPNFSVLGFMNDICSCYLDLATNGRDSANQLPKNLPFVTTNIDALKKSAARMAYTSQASNDVVEICSNEHMRDAENGAVGDSMALVVVPECQLSADEWRLISSVGDISLGKETVEIPWVNEVNDKVPPVFHYIAQSLVYQDAAVKFSLGNIRDDQCCSSCCGDCLAPSMACRCATAFNGFAYTVDGLLQEDFLEQCISEARDPRKQMLLYCKECPLEKAKKEVILEPCKGHLKRKAIKECWSKCGCMKNCGNRVVQQGIHNKLQVFFTPNGRGWGLRTLEKLPKGAFVCELAGEILTIPELFQRISDRPTSPVILDAYWGSEDISGDDKALSLEGTHYGNISRFINHRCLDANLIEIPVHAETTDSHYYHLAFFTTREIDAMEELTWDYGVPFNQDVFPTSPFHCQCGSDFCRVRKQISKGKNVKKRA

These are yes or no findings as the source states them, for the method shown. Binding seen in cells or lysates may run through a third protein. These calls come from enrichment with a bait or labelling near it, and not all partners need be listed. Where a sequence is shown, tags or fusion partners need not be part of it.
